Read-outs that look alike come from different tables or passages of the source. These are yes or no findings as the source states them, for the method shown. In cells and extracts the contact can be indirect. Some entries that bind do so weakly or less than the wild type.
Columns and labels:
Assay in all cases: co-IP
[1] = biological target: SIRT1 (human (endogenous in N/Tert-1, HFK and U2OS cells)) (UniProt Q96EB6)
[2] = biological target: Topoisomerase 1 (Top1) (human (endogenous in N/Tert-1)) (UniProt P11387)
[3] = biological target: SIRT1 (human (endogenous in N/Tert-1, HFK and U2OS cells)) (UniProt Q96EB6); remark: listed apart in the source
[4] = biological target: TopBP1 (human (endogenous in N/Tert-1 and HFK cells)) (UniProt Q92547)

Chains of the proteins cited; added tags and fusions are not shown. Lines headed by an entry give the natural chain unless they say otherwise; changes in a name come on top.
UniProt Q96EB6, whole entry: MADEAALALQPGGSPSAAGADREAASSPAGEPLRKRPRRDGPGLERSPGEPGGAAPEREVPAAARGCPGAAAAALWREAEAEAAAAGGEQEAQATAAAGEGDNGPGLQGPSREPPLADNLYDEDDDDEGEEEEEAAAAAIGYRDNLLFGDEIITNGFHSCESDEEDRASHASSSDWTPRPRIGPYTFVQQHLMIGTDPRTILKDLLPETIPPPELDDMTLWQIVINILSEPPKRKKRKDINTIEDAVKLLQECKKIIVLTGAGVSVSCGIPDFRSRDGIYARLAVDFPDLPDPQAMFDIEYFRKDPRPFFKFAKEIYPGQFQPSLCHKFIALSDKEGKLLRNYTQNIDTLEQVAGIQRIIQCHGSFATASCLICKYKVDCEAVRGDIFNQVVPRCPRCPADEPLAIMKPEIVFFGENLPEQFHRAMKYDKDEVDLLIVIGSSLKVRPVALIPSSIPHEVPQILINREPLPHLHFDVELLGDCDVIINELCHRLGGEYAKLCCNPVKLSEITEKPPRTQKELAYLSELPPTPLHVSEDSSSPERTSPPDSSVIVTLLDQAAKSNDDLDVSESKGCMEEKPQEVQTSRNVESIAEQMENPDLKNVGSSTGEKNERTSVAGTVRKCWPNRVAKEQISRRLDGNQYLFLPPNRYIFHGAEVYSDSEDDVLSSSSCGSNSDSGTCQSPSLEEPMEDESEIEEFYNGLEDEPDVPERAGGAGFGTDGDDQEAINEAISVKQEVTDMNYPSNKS
UniProt P11387, whole entry: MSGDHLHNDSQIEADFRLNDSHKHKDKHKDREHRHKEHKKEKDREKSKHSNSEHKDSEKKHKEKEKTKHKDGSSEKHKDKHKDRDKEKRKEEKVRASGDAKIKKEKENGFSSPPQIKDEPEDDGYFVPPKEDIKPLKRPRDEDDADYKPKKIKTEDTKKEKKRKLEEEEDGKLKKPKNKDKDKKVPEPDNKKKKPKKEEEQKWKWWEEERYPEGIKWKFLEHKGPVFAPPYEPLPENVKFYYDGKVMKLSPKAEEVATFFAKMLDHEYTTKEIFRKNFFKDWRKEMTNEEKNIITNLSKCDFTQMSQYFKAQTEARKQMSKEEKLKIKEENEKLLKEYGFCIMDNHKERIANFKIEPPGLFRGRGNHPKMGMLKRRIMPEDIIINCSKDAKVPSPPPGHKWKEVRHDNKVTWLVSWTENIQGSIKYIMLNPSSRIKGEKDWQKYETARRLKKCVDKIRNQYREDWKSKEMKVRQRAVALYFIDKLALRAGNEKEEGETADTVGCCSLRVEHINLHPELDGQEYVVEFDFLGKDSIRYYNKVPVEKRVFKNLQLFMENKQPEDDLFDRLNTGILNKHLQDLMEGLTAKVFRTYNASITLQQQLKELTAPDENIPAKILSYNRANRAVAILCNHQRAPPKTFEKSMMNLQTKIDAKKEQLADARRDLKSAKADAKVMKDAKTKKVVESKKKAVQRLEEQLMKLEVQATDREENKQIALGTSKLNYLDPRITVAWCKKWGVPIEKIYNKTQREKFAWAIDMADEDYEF
UniProt Q92547, whole entry: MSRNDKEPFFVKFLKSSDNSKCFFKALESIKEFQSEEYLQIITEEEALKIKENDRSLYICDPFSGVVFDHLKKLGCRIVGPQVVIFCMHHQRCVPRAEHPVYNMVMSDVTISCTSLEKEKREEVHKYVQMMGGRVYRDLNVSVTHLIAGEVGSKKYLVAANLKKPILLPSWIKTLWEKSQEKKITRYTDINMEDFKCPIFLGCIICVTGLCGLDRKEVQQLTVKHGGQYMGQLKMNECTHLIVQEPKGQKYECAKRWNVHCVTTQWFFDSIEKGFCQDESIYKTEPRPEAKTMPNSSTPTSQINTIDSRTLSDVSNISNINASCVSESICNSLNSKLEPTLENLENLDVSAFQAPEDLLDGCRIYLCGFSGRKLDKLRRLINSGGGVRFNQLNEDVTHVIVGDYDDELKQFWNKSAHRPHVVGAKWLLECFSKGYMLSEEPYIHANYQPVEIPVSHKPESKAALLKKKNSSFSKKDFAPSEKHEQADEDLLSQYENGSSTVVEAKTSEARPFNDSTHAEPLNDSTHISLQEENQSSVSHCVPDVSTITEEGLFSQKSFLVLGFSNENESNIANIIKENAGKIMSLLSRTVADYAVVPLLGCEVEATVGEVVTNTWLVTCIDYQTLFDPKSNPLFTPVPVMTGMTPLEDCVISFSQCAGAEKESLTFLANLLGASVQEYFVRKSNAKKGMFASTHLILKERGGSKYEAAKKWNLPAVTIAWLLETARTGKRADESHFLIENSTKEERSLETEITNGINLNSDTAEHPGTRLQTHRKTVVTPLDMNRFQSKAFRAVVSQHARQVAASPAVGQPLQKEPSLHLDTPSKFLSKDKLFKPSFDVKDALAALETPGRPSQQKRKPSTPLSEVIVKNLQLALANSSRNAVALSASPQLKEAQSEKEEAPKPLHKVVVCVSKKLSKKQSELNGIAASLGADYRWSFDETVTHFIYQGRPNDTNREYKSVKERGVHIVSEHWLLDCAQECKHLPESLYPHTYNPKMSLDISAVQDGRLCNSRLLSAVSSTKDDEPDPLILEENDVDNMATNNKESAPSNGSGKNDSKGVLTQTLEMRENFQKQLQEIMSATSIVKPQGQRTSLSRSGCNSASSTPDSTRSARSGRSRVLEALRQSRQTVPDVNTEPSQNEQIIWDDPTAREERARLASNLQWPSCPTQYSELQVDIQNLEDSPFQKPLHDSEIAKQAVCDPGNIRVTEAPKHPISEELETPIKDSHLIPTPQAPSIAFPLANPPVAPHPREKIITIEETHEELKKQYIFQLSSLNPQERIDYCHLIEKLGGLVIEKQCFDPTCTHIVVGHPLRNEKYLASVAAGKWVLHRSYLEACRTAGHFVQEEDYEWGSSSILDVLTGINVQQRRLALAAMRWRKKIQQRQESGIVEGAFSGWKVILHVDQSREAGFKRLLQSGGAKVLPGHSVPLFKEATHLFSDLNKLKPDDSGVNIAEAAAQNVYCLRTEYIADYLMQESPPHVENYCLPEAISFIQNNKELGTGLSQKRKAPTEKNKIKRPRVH

Substance	binding [1]	binding [2]	binding [3]	binding [4]
HPV16 E2 expressed from the HPV16 genome in HFK+HPV16 cells (from UniProt P03120 1-365)	binds			
HPV16 wild-type E2 (E2-WT) (from UniProt P03120 1-365)	binds	binds	binds	
E2-K111Q (E2 with lysine 111 mutated to glutamine) (from UniProt P03120 1-365)				binds
E2-S23A (E2 with serine 23 mutated to alanine) (from UniProt P03120 1-365)	binds		binds	
E2-K112R (E2 with lysine 112 mutated to arginine) (from UniProt P03120 1-365)				binds
E2-K111R + K112R (E2 with lysine 111 and lysine K112 mutated to arginine) (from UniProt P03120 1-365)		no binding		binds
E2-K111R (E2 with lysine 111 mutated to arginine) (from UniProt P03120 1-365)		no binding		binds
